Assay results published in US20220025032A1.
These are yes or no findings as the source states them, for the method shown. Some results given as binding are weak or reduced against the parent protein; the word gives no strength.

Chains of the proteins cited; added tags and fusions are not shown. Lines headed by an entry give the natural chain unless they say otherwise; changes in a name come on top.
UniProt P35070: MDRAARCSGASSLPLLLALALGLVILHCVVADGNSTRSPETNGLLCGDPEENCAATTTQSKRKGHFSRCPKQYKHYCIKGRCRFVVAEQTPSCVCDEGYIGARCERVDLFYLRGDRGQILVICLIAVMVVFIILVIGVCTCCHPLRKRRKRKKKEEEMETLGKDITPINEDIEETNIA

Experiments:
[1] = target: membrane-bound human BTC on 293F-hBTC cells (human) (UniProt P35070); experiment: flow cytometry on 293F-hBTC cells
[2] = target: membrane-bound human BTC on 293F-hBTC cells (human) (UniProt P35070); experiment: flow cytometry on 293F-hBTC cells, anti-human Fab-FITC

Row | binding [1] | binding [2] | Binder
1 | binds | binds | NVS13 (bispecific antibody) heavy: QVQLLESGGGLVQPGGSLRLSCAASGFTFSSYAMSWVRQAPGKGLEWVSGLGHVGYTTYTDSVKGRFTISRDNSKNTLYLQMNSLRAEDTAVYYCARDYLDFGYYFDVWGQGTLVTVSSASTKGPSVFPLAPSSKSTSGGTAALGCLVKDYFPEPVTVSWNSGALTSGVHTFPAVLQSSGLYSLSSVVTVPSSSLGTQTYICNVNHKPSNTKVDKRVEPKSCGSGGGGSGGGGSGGGEVQLVESGGGLVQPGGSLRLSCTASGFSLTDYYYMTWVRQAPGKGLEWVGFIDPDDDPYYATWAKGRFTISRDNSKNTLYLQMNSLRAEDTAVYYCAGGDHNSGWGLDIWGQGTLVTVSSASTKGPSVFPLAPSSKSTSGGTAALGCLVKDYFPEPVTVSWNSGALTSGVHTFPAVLQSSGLYSLSSVVTVPSSSLGTQTYICNVNHKPSNTKVDKRVEPKSC light: SYELTQPLSVSVALGQTARITCSGDKIGKKYVHWYQQKPGQAPVLVIYDDSDRPSGIPERFSGSNSGNTATLTISRAQAGDEADYYCQAWDMQSVVFGGGTKLTVLGQPKAAPSVTLFPPSSEELQANKATLVCLISDFYPGAVTVAWKADSSPVKAGVETTTPSKQSNNKYAASSYLSLTPEQWKSHRSYSCQVTHEGSTVEKTVAPTECSGSGGGGSGGGGSGGGEIVMTQSPSTLSASVGDRVIITCQASEIIHSWLAWYQQKPGKAPKLLIYLASTLASGVPSRFSGSGSGAEFTLTISSLQPDDFATYYCQNVYLASTNGANFGQGTKLTVLKRTVAAPSVFIFPPSDEQLKSGTASVVCLLNNFYPREAKVQWKVDNALQSGNSQESVTEQDSKDSTYSLSSTLTLSKADYEKHKVYACEVTHQGLSSPVTKSFNRGEC
2 | binds | – | NVS4 (Fab, V domains shown) VH: QVQLLESGGGLVQPGGSLRLSCAASGFTFSRYWISWVRQAPGKGLEWVSYIDSTGTFINYADSVKGRFTISRDNSKNTLYLQMNSLRAEDTAVYYCARGGSLFDYWGQGTLVTVSS VL: DIQMTQSPSSLSASVGDRVTITCRASQGIISYLGWYQQKPGKAPKLLIYAASSLQSGVPSRFSGSGSGTDFTLTISSLQPEDFATYYCQQYDALNTFGQGTKVEIKR
3 | binds | binds | NVS3 (Fab, V domains shown) VH: QVQLLESGGGLVQPGGSLRLSCAASGFTFSSYAMSWVRQAPGKGLEWVSGLGHVGYTTYTDSVKGRFTISRDNSKNTLYLQMNSLRAEDTAVYYCARDYLDFGYYFDVWGQGTLVTVSS VL: SYELTQPLSVSVALGQTARITCSGDKIGKKYVHWYQQKPGQAPVLVIYDDSDRPSGIPERFSGSNSGNTATLTISRAQAGDEADYYCQAWDMQSVVFGGGTKLTVLG
